Source: PMC9928087, “Plasmids manipulate bacterial behaviour through translational regulatory crosstalk”

Legend:
Assay in all cases: SPR
[1] = biological target: T1, RsmE (Pseudomonas fluorescens SBW25) (UniProt A0ACG8AC87); conditions: 100 nM protein, SPR (ReDCaT SA chip, Biacore 8K): 10 mM HEPES, 150 mM NaCl, 3 mM EDTA, 0.05% Tween 20, pH 7.4, 20 C, RsmQ 100 and 1000 nM (Fig 4: 100-1000 nM), recombinant protein, protein details: His tag (pET28a NdeI/XhoI), folded or branched DNA
T1 sequence (looked up, limits assumed): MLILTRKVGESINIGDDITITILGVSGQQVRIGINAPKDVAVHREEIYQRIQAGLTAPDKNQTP

[2] = test system: T2, RsmQ (Pseudomonas fluorescens SBW25 plasmid pQBR103); conditions: 100 nM protein; SPR (ReDCaT SA chip, Biacore 8K): 10 mM HEPES, 150 mM NaCl, 3 mM EDTA, 0.05% Tween 20, pH 7.4, 20 C; RsmQ 100 and 1000 nM (Fig 4: 100-1000 nM); recombinant protein; protein details: C-terminal TEV site + 6xHis; folded or branched DNA
T2 sequence (looked up, limits assumed): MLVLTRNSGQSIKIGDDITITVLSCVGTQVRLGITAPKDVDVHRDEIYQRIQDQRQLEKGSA

[3] = test system: T3, RsmQ H43A (Pseudomonas fluorescens SBW25 plasmid pQBR103); conditions: 100 nM protein; SPR (ReDCaT SA chip, Biacore 8K): 10 mM HEPES, 150 mM NaCl, 3 mM EDTA, 0.05% Tween 20, pH 7.4, 20 C; RsmQ 100 and 1000 nM (Fig 4: 100-1000 nM); recombinant protein; protein details: C-terminal TEV site + 6xHis; folded or branched DNA
T3 sequence (looked up, limits assumed): T2 sequence (looked up, limits assumed) with H43A

[4] = test system: T4, RsmQ R44A (Pseudomonas fluorescens SBW25 plasmid pQBR103); conditions: 100 nM protein; SPR (ReDCaT SA chip, Biacore 8K): 10 mM HEPES, 150 mM NaCl, 3 mM EDTA, 0.05% Tween 20, pH 7.4, 20 C; RsmQ 100 and 1000 nM (Fig 4: 100-1000 nM); recombinant protein; protein details: C-terminal TEV site + 6xHis; folded or branched DNA
T4 sequence (looked up, limits assumed): T2 sequence (looked up, limits assumed) with R44A

**Q.** Does “CCGCGCACGGAAGCGCAAACCCTACCCTACGTCCTCCTGC [Full_Bind_HP (ACGGA hairpin)]” bind ([1]; not effective)?
**A.** Result: binds more weakly

**Q.** Does “CCGCGCACGGAAGCGCAAACCCTACCCTACGTCCTCCTGC [Full_Bind_HP (ACGGA hairpin)]” bind [2]?
**A.** Result: binds

**Q.** Does “CCGCGCACGGAAGCGCAAACCCTACCCTACGTCCTCCTGC [Full_Bind_HP (ACGGA hairpin)]” bind [3]?
**A.** Result: binds more weakly

**Q.** Does “CCGCGCACGGAAGCGCAAACCCTACCCTACGTCCTCCTGC [Full_Bind_HP (ACGGA hairpin)]” bind [4]?
**A.** Result: binds more weakly

**Q.** What does the source list for “CCGCGCAGGAAGCGCAAACCCTACCCTACGTCCTCCTGC [Bind_HP (GGA hairpin)]”?
**A.** binding signal ([1]; mean of -5.99 and -6.16, counted as no binding): -6.07 %Rmax; binding result [3]: binds more weakly; binding result [4]: binds more weakly

Substitutions are numbered along the chain they refer to. The exact form of at least one protein or probe is not confirmed. For some of these results: The comparison behind a weaker result is the experiment's own reference, which may not be listed here. For some of these results: At least one verdict rests on a figure or table, not on a statement of the authors. For some of these results: Protein sequences can lack the tags named with them. For some of these results: The direction of at least one scale is not stated here.
